Read-outs that look alike come from different tables or passages of the source. No constants are given. Whether binding was seen depends on the method and setting. In cells and extracts the contact can be indirect. Some binding calls cover weakened binding; strength is not graded here. Where a sequence is shown, tags or fusion partners need not be part of it.
How the values were obtained:
Test in all cases: co-IP
[1] = target: FLAG-PKM2-CTD (residues 389-531) (human) (UniProt P14618)
[2] = target: FLAG-PKM1, full length (residues 1-531) (human) (UniProt P14618)
[3] = target: FLAG-PKM2, full length (residues 1-531) (human) (UniProt P14618)
[4] = target: FLAG-PKM1-CTD (residues 389-531) (human) (UniProt P14618)
[5] = target: FLAG-PKM1, full length (residues 1-531) (human) (UniProt P14618); remark: listed apart in the source
FLAG-PKM2-R399E (human) = FLAG-PKM2-R399E (human) (UniProt P14618)
FLAG-PKM2-Q393K (human) = FLAG-PKM2-Q393K (human) (UniProt P14618)
[6] = target: FLAG-PKM1, full length (residues 1-531) (human) (UniProt P14618); remark: listed apart in the source
[7] = target: HaloTag-N58-PKM1-FLAG (human) (UniProt P14618)

Protein sequences, listed by entry. Tags and fused reporters are not part of them. Lines headed by an entry give the natural chain unless they say otherwise; changes in a name come on top. Residues count along the entry.
UniProt P14618, 389-531: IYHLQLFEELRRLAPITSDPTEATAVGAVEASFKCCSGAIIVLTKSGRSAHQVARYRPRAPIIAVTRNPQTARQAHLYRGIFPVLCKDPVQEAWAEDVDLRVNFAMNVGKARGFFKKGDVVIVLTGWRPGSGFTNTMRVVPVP
UniProt P14618, whole entry: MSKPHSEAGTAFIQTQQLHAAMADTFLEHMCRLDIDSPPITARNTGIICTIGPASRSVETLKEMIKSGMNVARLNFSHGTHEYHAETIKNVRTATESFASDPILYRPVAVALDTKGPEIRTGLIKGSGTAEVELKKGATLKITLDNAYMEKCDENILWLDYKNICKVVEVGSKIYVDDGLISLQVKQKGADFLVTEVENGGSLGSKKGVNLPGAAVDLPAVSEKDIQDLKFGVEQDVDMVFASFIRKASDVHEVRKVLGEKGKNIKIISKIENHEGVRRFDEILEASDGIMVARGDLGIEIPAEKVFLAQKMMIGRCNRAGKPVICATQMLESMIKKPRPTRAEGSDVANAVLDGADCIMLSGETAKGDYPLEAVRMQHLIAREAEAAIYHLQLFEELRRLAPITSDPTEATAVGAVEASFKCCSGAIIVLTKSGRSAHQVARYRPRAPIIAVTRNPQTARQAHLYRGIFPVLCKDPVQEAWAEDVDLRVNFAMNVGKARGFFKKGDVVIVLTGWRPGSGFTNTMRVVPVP

binding [1]	binding [2]	binding [3]	binding [4]	binding [5]	binding (FLAG-PKM2-R399E (human))	binding (FLAG-PKM2-Q393K (human))	binding [6]	binding [7]	Binder
binds	binds	binds	binds	–	–	–	–	–	Doxycycline-inducible, untagged SARM1 (protein, UniProt Q6SZW1 28-724) LAVPGPDGGGGTGPWWAAGGRGPREVSPGAGTEVQDALERALPELQQALSALKQAGGARAVGAGLAEVFQLVEEAWLLPAVGREVAQGLCDAIRLDGGLDLLLRLLQAPELETRVQAARLLEQILVAENRDRVARIGLGVILNLAKEREPVELARSVAGILEHMFKHSEETCQRLVAAGGLDAVLYWCRRTDPALLRHCALALGNCALHGGQAVQRRMVEKRAAEWLFPLAFSKEDELLRLHACLAVAVLATNKEVEREVERSGTLALVEPLVASLDPGRFARCLVDASDTSQGRGPDDLQRLVPLLDSNRLEAQCIGAFYLCAEAAIKSLQGKTKVFSDIGAIQSLKRLVSYSTNGTKSALAKRALRLLGEEVPRPILPSVPSWKEAEVQTWLQQIGFSKYCESFREQQVDGDLLLRLTEEELQTDLGMKSGITRKRFFRELTELKTFANYSTCDRSNLADWLGSLDPRFRQYTYGLVSCGLDRSLLHRVSEQQLLEDCGIHLGVHRARILTAAREMLHSPLPCTGGKPSGDTPDVFISYRRNSGSQLASLLKVHLQLHGFSVFIDVEKLEAGKFEDKLIQSVMGARNFVLVLSPGALDKCMQDHDCKDWVHKEIVTALSCGKNIVPIIDGFEWPEPQVLPEDMQAVLTFNGIKWSHEYQEATIEKIIRFLQGRSSRDSSAGSDTSLEGAAPMGPT
binds	binds	binds	binds	binds	binds	binds	binds	–	SARM1-HA (protein, UniProt Q6SZW1 28-724) LAVPGPDGGGGTGPWWAAGGRGPREVSPGAGTEVQDALERALPELQQALSALKQAGGARAVGAGLAEVFQLVEEAWLLPAVGREVAQGLCDAIRLDGGLDLLLRLLQAPELETRVQAARLLEQILVAENRDRVARIGLGVILNLAKEREPVELARSVAGILEHMFKHSEETCQRLVAAGGLDAVLYWCRRTDPALLRHCALALGNCALHGGQAVQRRMVEKRAAEWLFPLAFSKEDELLRLHACLAVAVLATNKEVEREVERSGTLALVEPLVASLDPGRFARCLVDASDTSQGRGPDDLQRLVPLLDSNRLEAQCIGAFYLCAEAAIKSLQGKTKVFSDIGAIQSLKRLVSYSTNGTKSALAKRALRLLGEEVPRPILPSVPSWKEAEVQTWLQQIGFSKYCESFREQQVDGDLLLRLTEEELQTDLGMKSGITRKRFFRELTELKTFANYSTCDRSNLADWLGSLDPRFRQYTYGLVSCGLDRSLLHRVSEQQLLEDCGIHLGVHRARILTAAREMLHSPLPCTGGKPSGDTPDVFISYRRNSGSQLASLLKVHLQLHGFSVFIDVEKLEAGKFEDKLIQSVMGARNFVLVLSPGALDKCMQDHDCKDWVHKEIVTALSCGKNIVPIIDGFEWPEPQVLPEDMQAVLTFNGIKWSHEYQEATIEKIIRFLQGRSSRDSSAGSDTSLEGAAPMGPT
–	–	–	–	–	–	–	–	binds	SARM1-HaloTag-C58 (protein, UniProt Q6SZW1 28-724) LAVPGPDGGGGTGPWWAAGGRGPREVSPGAGTEVQDALERALPELQQALSALKQAGGARAVGAGLAEVFQLVEEAWLLPAVGREVAQGLCDAIRLDGGLDLLLRLLQAPELETRVQAARLLEQILVAENRDRVARIGLGVILNLAKEREPVELARSVAGILEHMFKHSEETCQRLVAAGGLDAVLYWCRRTDPALLRHCALALGNCALHGGQAVQRRMVEKRAAEWLFPLAFSKEDELLRLHACLAVAVLATNKEVEREVERSGTLALVEPLVASLDPGRFARCLVDASDTSQGRGPDDLQRLVPLLDSNRLEAQCIGAFYLCAEAAIKSLQGKTKVFSDIGAIQSLKRLVSYSTNGTKSALAKRALRLLGEEVPRPILPSVPSWKEAEVQTWLQQIGFSKYCESFREQQVDGDLLLRLTEEELQTDLGMKSGITRKRFFRELTELKTFANYSTCDRSNLADWLGSLDPRFRQYTYGLVSCGLDRSLLHRVSEQQLLEDCGIHLGVHRARILTAAREMLHSPLPCTGGKPSGDTPDVFISYRRNSGSQLASLLKVHLQLHGFSVFIDVEKLEAGKFEDKLIQSVMGARNFVLVLSPGALDKCMQDHDCKDWVHKEIVTALSCGKNIVPIIDGFEWPEPQVLPEDMQAVLTFNGIKWSHEYQEATIEKIIRFLQGRSSRDSSAGSDTSLEGAAPMGPT
